Hit rate of the full screen: of about 71,000 compounds, about 310 (0.44%) were called active. Inconclusive results, whose numbers are uncertain, are shown with a selection of clear calls. The call rests on the fitted dose curve; in most records, active means well fitted curve in either direction with a large enough effect; inconclusive means small, poorly fitted or top-dose-only effect, or another doubt; inactive means flat fitted curve, though single readings scatter. A potency beside an inconclusive call is a rough fit, not a confirmed value.
These compounds were tested on Hsp90 C-terminal peptide / TPR2A (Hop) interaction, human (assay: qHTS Assay for Disrupters of an Hsp90 Co-Chaperone Interaction). Conditions: AlphaScreen TPR2A-His6 binding biotin-Hsp90 C-terminal peptide; activity change, negative = inhibition: at 57 µM (top of the series) unless noted.
On the % scale 0 is the no-effect control and ±100 the full control effect; potency means the concentration at half of the fitted maximal effect.

SMILES | activity change, negative = inhibition | Potency
O=C(Nc1ccc(N2CCN(C(=O)c3ccccc3)CC2)c(Cl)c1)c1ccco1 | inactive | –
CCCCCCCNS(=O)(=O)c1cccc2c(Cl)cccc12 | – | inconclusive: 39.8 µM [activator, single point]
Cc1ccc2cc(CN(CCN3CCOCC3)C(=O)NCc3ccccc3)c(=O)[nH]c2c1C | inconclusive: 40.9% | –
CCCCn1nc(NC(=O)c2cccs2)c2cc3cc(OC)ccc3nc21 | – | active: 20 µM [activator]
Cc1cc(OC2CCCCC2)nc(-c2ccccc2O)n1 | – | active: 3.16 µM [activator]
Cc1nnc(SCCn2c(N3CCN(C)CC3)nc3c2c(=O)n(C)c(=O)n3C)s1 | inconclusive: 39.9% | –
COc1ccc(-n2c(SC3CCOC3=O)nc3ccccc3c2=O)cc1OC (centres undefined) | inconclusive: 27.3% | –
Cn1cccc1C(=O)N1CCC2(CCN(Cc3ccc(C#N)cc3)CC2)CC1 | inactive | –
CC12CCC(C(=O)NCc3ccc4c(c3)OCO4)(CC1=O)C2(C)C (centres undefined) | inconclusive: 47.7% | –
O=C1OC(=O)[C@@H]2[C@@H]1[C@@H]1CC[C@H]2O1 | inconclusive: 52.8% | –
CC1(C)CCC[C@@]2(C)[C@@H]1CC[C@]1(C)OC(=O)C[C@@H]21 | inconclusive: 92.6% | –
CCc1c(C)[nH]c2c1C(=O)[C@H](CN1CCOCC1)CC2 | inactive | –
COC(=O)NCc1ccc(CNC(=O)OC)cc1 | inconclusive: 44.9% | –
CN1CCC2(CC1)CCN(C(=O)c1cc(C(F)(F)F)cc(C(F)(F)F)c1)CC2 | inactive | –
CCCOc1ccccc1Cn1c(=O)oc2ccc(C)cc21 | – | inconclusive: 20 µM [activator, single point]
OCc1cc([C@@H](O)CNCCCCCCOCCCCc2ccccc2)ccc1O | inconclusive: 52% | –
COc1ccc(C(=O)CSc2nn3c(=O)c(C(C)(C)C)nnc3s2)cc1 | inconclusive: -12.2% | –
c1ccc(-c2nn3c(Cn4nnc5ccccc54)nnc3s2)nc1 | – | inconclusive: 25.1 µM [inhibitor, single point]
S=C(c1ccc(-c2ccc(Cl)c(Cl)c2)o1)N1CCOCC1 | – | inconclusive: 12.6 µM [inhibitor, partial curve]
c1ccc(-c2oc3ncnc(NCCCn4ccnc4)c3c2-c2ccccc2)cc1 | – | inconclusive: 31.6 µM [inhibitor, single point]
COC(=O)c1c(-c2cccs2)csc1NC(=O)CN1CCOCC1 | inactive | –
Cc1cc(=O)oc2c(N)c(O)ccc12 | inactive | –
NC(=O)c1ccsc1NC(=O)CSc1ccccc1F | inconclusive: 29% | –
COc1ccc(CCCc2nnc(SCC(=O)Nc3nccs3)n2C)cc1C | inconclusive: 44.1% | –

Full records from above:
`CCCCn1nc(NC(=O)c2cccs2)c2cc3cc(OC)ccc3nc21` is listed as Potency: active: 20 µM [activator]
`COC(=O)NCc1ccc(CNC(=O)OC)cc1` is listed as activity change, negative = inhibition: inconclusive: 44.9%

Reference: PubChem BioAssay AID595 (National Center for Advancing Translational Sciences (NCATS), 2007)
